Laboratory results published in publication PMC3904817.
Like-named read-outs stand apart in the source and are kept apart here. No constants are given. Whether binding was seen depends on the method and setting. Binding seen in cells or lysates may run through a third protein. Binding can be weak; no strength is given. For part of these data: Tags and fused reporters may be left off the sequences shown. Values belong to the molecule of their own block, whether it stands above or below them.

Amino acid sequences for entries named in this document (tags omitted). A change or cut given only in a name is not applied to a line headed by its entry.
UniProt Q9W501: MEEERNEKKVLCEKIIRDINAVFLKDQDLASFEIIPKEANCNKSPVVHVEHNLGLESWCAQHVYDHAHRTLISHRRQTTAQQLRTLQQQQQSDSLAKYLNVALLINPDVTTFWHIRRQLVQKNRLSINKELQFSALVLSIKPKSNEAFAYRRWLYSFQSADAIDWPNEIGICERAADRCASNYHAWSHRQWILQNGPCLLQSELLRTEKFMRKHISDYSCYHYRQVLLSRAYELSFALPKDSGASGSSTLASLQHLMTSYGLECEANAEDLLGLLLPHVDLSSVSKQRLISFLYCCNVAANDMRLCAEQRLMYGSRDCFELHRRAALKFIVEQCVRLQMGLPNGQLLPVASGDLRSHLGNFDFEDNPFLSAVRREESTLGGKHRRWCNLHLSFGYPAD
UniProt Q9VN77: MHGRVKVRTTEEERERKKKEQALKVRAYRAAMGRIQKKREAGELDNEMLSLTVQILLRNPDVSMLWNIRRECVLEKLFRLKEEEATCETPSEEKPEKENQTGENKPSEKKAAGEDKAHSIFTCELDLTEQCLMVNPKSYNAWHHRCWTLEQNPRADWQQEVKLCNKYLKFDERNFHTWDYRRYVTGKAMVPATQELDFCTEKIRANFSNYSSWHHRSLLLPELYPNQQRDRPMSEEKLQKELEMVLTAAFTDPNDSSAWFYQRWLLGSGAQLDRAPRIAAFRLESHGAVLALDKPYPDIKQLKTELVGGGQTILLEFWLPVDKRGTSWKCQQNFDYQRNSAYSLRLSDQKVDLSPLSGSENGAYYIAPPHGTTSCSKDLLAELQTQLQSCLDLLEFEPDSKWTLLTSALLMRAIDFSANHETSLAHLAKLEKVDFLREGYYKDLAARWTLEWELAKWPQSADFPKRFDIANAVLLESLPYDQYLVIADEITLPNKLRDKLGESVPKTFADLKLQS
UniProt Q9XZ68: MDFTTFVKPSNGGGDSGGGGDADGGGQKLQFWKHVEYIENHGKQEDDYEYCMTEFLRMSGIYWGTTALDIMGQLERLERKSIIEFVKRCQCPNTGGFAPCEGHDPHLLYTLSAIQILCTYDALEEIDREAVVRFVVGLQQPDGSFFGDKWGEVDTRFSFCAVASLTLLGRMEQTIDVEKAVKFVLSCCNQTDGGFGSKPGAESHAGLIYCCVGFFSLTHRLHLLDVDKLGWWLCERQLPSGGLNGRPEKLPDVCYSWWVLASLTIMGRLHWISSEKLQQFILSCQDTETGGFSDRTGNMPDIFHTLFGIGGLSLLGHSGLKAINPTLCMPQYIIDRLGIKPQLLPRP
UniProt O18332: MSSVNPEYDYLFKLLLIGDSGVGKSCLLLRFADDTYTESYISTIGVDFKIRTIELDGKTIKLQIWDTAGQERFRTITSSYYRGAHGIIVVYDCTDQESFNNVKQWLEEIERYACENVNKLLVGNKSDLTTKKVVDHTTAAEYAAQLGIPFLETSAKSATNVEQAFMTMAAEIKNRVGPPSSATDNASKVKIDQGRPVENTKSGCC

Tests used:
[1] = target: Tempura (Temp), HA-tagged (Drosophila) (UniProt Q9W501); experiment: co-IP; transfected Drosophila S2 cells, α-HA beads, same lysis buffer; Temp with Rab1 or Rab11, with or without cotransfected RabGGTβ and REP (Figure 7A-B)
[2] = target: RabGGTα (PTAR3), HA-tagged (Drosophila) (UniProt Q9VN77); experiment: co-IP; transfected Drosophila S2 cells, harvested 48 h after transfection; lysis buffer 50 mM Tris-HCl pH 7.5, 150 mM NaCl, 5% glycerol, 0.5% TritonX-100; lysate incubated with α-HA beads overnight; Western blot (Figure 5C-D)
[3] = target: RabGGTβ (His–RabGGTβ–V5) (Drosophila) (UniProt Q9XZ68); experiment: co-IP; RabGGTβ competition assay in S2 cells: RabGGTβ kept at a low level, RabGGTβ and Temp transfected at the same level, RabGGTα increased gradually; RabGGTβ pulled down by α-V5 beads (Figure 5E)
[4] = target: RabGGTα (PTAR3), HA-tagged (Drosophila) (UniProt Q9VN77); experiment: co-IP; transfected Drosophila S2 cells, harvested 48 h after transfection; lysis buffer 50 mM Tris-HCl pH 7.5, 150 mM NaCl, 5% glycerol, 0.5% TritonX-100; lysate incubated with α-HA beads overnight; Western blot (Figure 5C-D); remark: listed apart in the source
[5] = target: Tempura (Temp), HA-tagged (Drosophila) (UniProt Q9W501); experiment: as above

Molecule: Rab1 (from UniProt O18332 1-205)
- binding [1]: binds

Molecule: Tempura (Temp), HA-tagged (from UniProt Q9W501)
- binding [3]: binds

B2: Rab11 (protein, UniProt O18335 1-214)
chain: MGAREDEYDYLFKVVLIGDSGVGKSNLLSRFTRNEFNLESKSTIGVEFATRSIEVDGKTIKAQIWDTAGQERYRAITSAYYRGAVGALLVYDIAKHLTYENVERWLRELRDHADQNIVIMLVGNKSDLRHLRSVPTDEAKLFAERNGLSFIETSALDSTNVETAFQNILTEIYRIVSQKQIRDPPEGDVIRPSNVEPIDVKPTVTADVRKQCCQ
- binding [1]: binds

The next lines start with the values.

- binding [2]: binds
Molecule: RabGGTβ (His–RabGGTβ–V5) (from UniProt Q9XZ68)

- binding [4]: binds
- binding [5]: binds
B1: Rab escort protein (REP), FLAG-tagged (protein, UniProt Q9V8W3 1-511)
chain: MLDDLPEQFDLVVIGTGFTESCIAAAGSRIGKSVLHLDSNEYYGDVWSSFSMDALCARLDQEVEPHSALRNARYTWHSMEKESETDAQSWNRDSVLAKSRRFSLDLCPRILYAAGELVQLLIKSNICRYAEFRAVDHVCMRHNGEIVSVPCSRSDVFNTKTLTIVEKRLLMKFLTACNDYGEDKCNEDSLEFRGRTFLEYLQAQRVTEKISSCVMQAIAMCGPSTSFEEGMQRTQRFLGSLGRYGNTPFLFPMYGCGELPQCFCRLCAVYGGIYCLKRAVDDIALDSNSNEFLLSSAGKTLRAKNVVSAPGYTPVSKGIELKPHISRGLFISSSPLGNEELNKGGGGVNLLRLLDNEGGREAFLIQLSHYTGACPEGLYIFHLTTPALSEDPASDLAIFTSQLFDQSDAQIIFSSYFTIAAQSSKSPAAEHIYYTDPPTYELDYDAAIANARDIFGKMFPDADFLPRAPDPEEIVVDGEDPSALNEHTLPEDLRAQLHDMQQATQEMDIQE
